Reference: patent US9723837B2, “Imidazole derivatives useful for controlling microbial growth” (North Carolina State University, priority 2012, dated 2017)
Some of these results come from one statement about several compounds together.

Test system: E. coli
Assay: Broth microdilution MIC, E. coli
Assay type: cell-based
Details: Mueller-Hinton medium, 37° C., 16 hours
Experimental: Each member of the pilot library was tested for antibiotic activity. Activity was quantified by measuring the MIC of each derivative against a variety of representative pathogenic bacterial strains using the microdilution protocol (CSLI, Performance Standards for Antimicrobial Susceptibility Testing; Nineteenth Informational Supplement, Clinical and Laboratory Standards Institute, Wayne, Pa., 2009). A. baumannii, E. coli, MSSA, and MRSA were used for initial evaluation. […] Compounds 4d, 4n, and 4o were determined to be the lead compounds.
Broth Microdilution Method for MIC Determination.
Overnight cultures of bacterial strain were subcultured to 5×10^5 CFU/mL in Mueller-Hinton medium (Fluka #70192). The resulting bacterial suspension was aliquoted (1.0 mL) into culture tubes. Samples were prepared from these culture tubes containing either 256 μg/mL of specified antibiotic or no test compound as a control. Samples were then aliquoted (200 μL) into the first row of wells of a 96-well microtiter plate in which subsequent wells were prefilled with 100 μL of Mueller-Hinton medium based 5×10^5 CFU/mL bacterial subculture. Using the multichannel pipettor set at 100 μL, row one wells were mixed 8-10 times. Then, 100 μL were withdrawn and transferred to row two. Row two wells were mixed 8-10 times followed by a 100 μL transfer from row two to row three. […]

| SMILES | MIC E. coli |
| --- | --- |
| CCCCCCCc1ccc(-n2c(N)nc(C)c2-c2ccccc2)cc1 [Compound 4d] | > 256 µg/mL |
| CCCCCc1ccc(-n2c(N)nc(C)c2-c2ccccc2)cc1 [Compound 4o] | > 256 µg/mL |
